Publication PMC3288005
These are yes or no findings as the source states them, for the method shown. Binding seen in cells or lysates may run through a third protein. Some binding calls cover weakened binding; strength is not graded here. For some assays here: Where a sequence is shown, tags or fusion partners need not be part of it.

Chains of the proteins cited; added tags and fusions are not shown.
UniProt Q7Z434: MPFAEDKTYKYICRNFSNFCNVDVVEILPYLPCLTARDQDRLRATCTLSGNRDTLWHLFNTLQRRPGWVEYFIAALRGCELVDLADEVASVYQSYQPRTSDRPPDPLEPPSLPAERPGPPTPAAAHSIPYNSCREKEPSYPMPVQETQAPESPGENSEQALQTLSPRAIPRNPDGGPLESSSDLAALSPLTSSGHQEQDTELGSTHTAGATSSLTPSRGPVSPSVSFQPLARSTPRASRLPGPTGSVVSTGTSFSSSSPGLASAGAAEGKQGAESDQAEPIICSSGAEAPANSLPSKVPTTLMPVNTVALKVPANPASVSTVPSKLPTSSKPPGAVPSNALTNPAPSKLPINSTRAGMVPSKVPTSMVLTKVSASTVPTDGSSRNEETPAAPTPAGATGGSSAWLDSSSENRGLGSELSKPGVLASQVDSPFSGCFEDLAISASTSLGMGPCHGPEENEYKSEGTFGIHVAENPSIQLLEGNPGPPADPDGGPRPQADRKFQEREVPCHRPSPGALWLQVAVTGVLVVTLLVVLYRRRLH

Columns and labels:
[1] = biological target: Mitochondrial antiviral signaling protein (MAVS), endogenous (human (endogenous in HEp-2 and A549)) (UniProt Q7Z434); test: co-IP; HEp-2 cells mock-infected or infected with rA2, rA2ΔNS1 or rA2ΔNS2 at MOI 1, 24 h p.i.; total cell lysates precipitated with anti-MAVS antibody and protein A-agarose; blots with anti-NS1 antiserum, anti-MAVS and anti-RSV F
[2] = biological target: T1, RIG-I (retinoic acid inducible gene), endogenous (human (endogenous in A549)) (UniProt O95786); test: co-IP; A549 cells mock-infected or infected with rA2 or rA2ΔNS1 (MOI 1), 24 h after infection; whole cell lysates precipitated with anti-RIG-I antibody; blots with anti-RIG-I, anti-MAVS and anti-NS1
T1 sequence: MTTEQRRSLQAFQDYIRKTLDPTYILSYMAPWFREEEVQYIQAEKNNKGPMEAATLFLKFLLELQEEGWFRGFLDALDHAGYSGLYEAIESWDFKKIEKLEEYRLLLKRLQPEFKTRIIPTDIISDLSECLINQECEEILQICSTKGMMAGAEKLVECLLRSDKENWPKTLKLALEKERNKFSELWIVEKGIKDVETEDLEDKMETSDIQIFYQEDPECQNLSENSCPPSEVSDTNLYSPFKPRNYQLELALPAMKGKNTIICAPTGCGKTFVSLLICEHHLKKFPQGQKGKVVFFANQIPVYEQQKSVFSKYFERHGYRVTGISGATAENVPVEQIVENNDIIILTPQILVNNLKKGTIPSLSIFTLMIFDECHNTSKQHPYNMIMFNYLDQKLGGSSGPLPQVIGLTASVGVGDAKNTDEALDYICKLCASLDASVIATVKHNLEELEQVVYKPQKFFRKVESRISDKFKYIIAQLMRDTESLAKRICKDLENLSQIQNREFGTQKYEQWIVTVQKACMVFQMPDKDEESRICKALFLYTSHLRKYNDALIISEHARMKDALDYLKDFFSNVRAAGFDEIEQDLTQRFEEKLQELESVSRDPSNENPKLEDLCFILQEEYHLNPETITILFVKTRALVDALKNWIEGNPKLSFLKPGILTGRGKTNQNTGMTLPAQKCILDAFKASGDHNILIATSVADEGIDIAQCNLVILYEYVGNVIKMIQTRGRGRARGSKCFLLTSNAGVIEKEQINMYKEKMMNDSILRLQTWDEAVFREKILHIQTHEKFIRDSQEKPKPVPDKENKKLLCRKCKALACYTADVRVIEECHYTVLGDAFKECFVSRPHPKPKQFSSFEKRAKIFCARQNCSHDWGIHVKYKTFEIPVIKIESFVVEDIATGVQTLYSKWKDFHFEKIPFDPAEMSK

[3] = biological target: Mitochondrial antiviral signaling protein (MAVS), endogenous (human (endogenous in HEp-2 and A549)) (UniProt Q7Z434); test: co-IP; A549 cells transfected with pNS1-Flag or pFlag; total cell extracts precipitated with anti-MAVS antibody; blots with anti-Flag and anti-MAVS
[4] = biological target: Mitochondrial antiviral signaling protein (MAVS), endogenous (human (endogenous in HEp-2 and A549)) (UniProt Q7Z434); test: co-IP; A549 cells transfected with pVAX or pNS1 with 0.2 ng/ml poly(I:C), harvested 12 and 24 h after transfection; extracts precipitated with anti-MAVS; blots with anti-RIG-I and anti-MAVS
[5] = biological target: MAVS expressed from plasmid pMAVS (Invivogen) (UniProt Q7Z434); test: co-IP; A549 cells co-transfected with constant amounts (6 µg) of pMAVS and pRIG-I and increasing amounts of pNS1 (pVAX to keep total DNA constant), with 0.2 ng/ml poly(I:C); precipitated with anti-MAVS, blotted with anti-RIG-I

B1: Respiratory syncytial virus nonstructural protein 1 (NS1), expressed from recombinant RSV rA2 or rA2ΔNS2 in infected cells (protein, UniProt P0DOE9 1-139)
chain: MGSNSLSMIKVRLQNLFDNDEVALLKITCYTDKLIHLTNALAKAVIHTIKLNGIVFVHVITSSDICPNNNIVVKSNFTTMPVLQNGGYIWEMMELTHCSQPNGLLDDNCEIKFSKKLSDSTMTNYMNQLSELLGFDLNP
[1]
  binding: binds
[2]
  binding: binds

B2: Flag-NS1 (RSV NS1 expressed from plasmid pNS1-Flag) (protein, UniProt P0DOE9 1-139)
chain: MGSNSLSMIKVRLQNLFDNDEVALLKITCYTDKLIHLTNALAKAVIHTIKLNGIVFVHVITSSDICPNNNIVVKSNFTTMPVLQNGGYIWEMMELTHCSQPNGLLDDNCEIKFSKKLSDSTMTNYMNQLSELLGFDLNP
[3]
  binding: binds

B3: RSV NS1 expressed from plasmid pNS1 (pVAX backbone) (protein, UniProt P0DOE9 1-139)
chain: MGSNSLSMIKVRLQNLFDNDEVALLKITCYTDKLIHLTNALAKAVIHTIKLNGIVFVHVITSSDICPNNNIVVKSNFTTMPVLQNGGYIWEMMELTHCSQPNGLLDDNCEIKFSKKLSDSTMTNYMNQLSELLGFDLNP
[4]
  binding: binds
[5]
  binding: binds
